Data taken from article PMC10570702.
These are yes or no findings as the source states them, for the method shown. Binding seen in cells or lysates may run through a third protein. Some binding calls cover weakened binding; strength is not graded here.

Biological target: FLAG-Smad2 (wildtype), Q15796
Test: co-IP; wildtype or SUMO site mutant FLAG-Smad2, with or without SUMO1 overexpression, in HEK293T; IP with anti-FLAG from cell lysates, IB with anti-Smad4; overnight at 4 °C, protein A/G agarose
Settings: remark: other sources report otherwise

B1: Smad4, Q13485 1-552 (protein)
chain: MDNMSITNTPTSNDACLSIVHSLMCHRQGGESETFAKRAIESLVKKLKEKKDELDSLITAITTNGAHPSKCVTIQRTLDGRLQVAGRKGFPHVIYARLWRWPDLHKNELKHVKYCQYAFDLKCDSVCVNPYHYERVVSPGIDLSGLTLQSNAPSSMMVKDEYVHDFEGQPSLSTEGHSIQTIQHPPSNRASTETYSTPALLAPSESNATSTANFPNIPVASTSQPASILGGSHSEGLLQIASGPQPGQQQNGFTGQPATYHHNSTTTWTGSRTAPYTPNLPHHQNGHLQHHPPMPPHPGHYWPVHNELAFQPPISNHPAPEYWCSIAYFEMDVQVGETFKVPSSCPIVTVDGYVDPSGGDRFCLGQLSNVHRTEAIERARLHIGKGVQLECKGEGDVWVRCLSDHAVFVQSYYLDREAGRAPGDAVHKIYPSAYIKVFDLRQCHRQMQQQAATAQAAAAAQAAAVAGNIPGPGSVGGIAPAISLSAAAGIGVDDLRRLCILRMSFVKGWGPDYPRQSIKETPCWIEIHLHRALQLLDEVLHTMPIADPQPLD
  binding: binds
